Measurements taken from PubChem BioAssay (NCATS).
The hits were mostly taken out for another list; the other results follow. Records with an inconclusive call do not appear. Activity calls are given as the source filed them. The call rests on the fitted dose curve; in most records, active means well fitted inhibition curve with a large enough effect; inconclusive means small, poorly fitted or top-dose-only effect; inactive means flat fitted curve, though single readings scatter.

Tests used:
Experiment in all cases: qHTS profiling for inhibitors of Plasmodium falciparum proliferation (AID 504749);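 further: 0% = DMSO vehicle and full inhibition = artemisinin control; nearly all actives have a fitted effect of over 60% in size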
Conditions in all cases: P. falciparum in erythrocytes, SYBR Green DNA, 72 h; at 28.7 µM (top of the series)
SC27B = tested on: SC27B
Summary of the method: (§1)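 Parasite proliferation within erythrocytes, 72 h exposure. Endpoint: SYBR Green I fluorescence after overnight lysis at room temperature. Controls: 0.29 uM artemisinin, DMSO.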

TAB109 = tested on: TAB109
Summary of the method: as §1

TAB113 = tested on: TAB113
Summary of the method: as §1

TAB165 = tested on: TAB165
Summary of the method: as §1

W2 = tested on: W2
Summary of the method: as §1

Measured: activity, negative = inhibition

CC(C)(C)c1ccc(O)cc1
inactive: SC27B -0.172% | TAB109 = -0.162% | TAB113 = 2.47% | TAB165 = 14.8% | W2 = 14.5%
